Assay results from PubChem BioAssay AID2685 (National Center for Advancing Translational Sciences (NCATS), 2010).
The list shows a part of the results. Further columns of the screen follow, without active or inactive calls. The list favours compounds with an active or inconclusive main result. Words in brackets tell the shape of the fitted curve; partial curves, single points and poor fits give uncertain potencies.

Test: qHTS Assay for Lipid Storage Modulators in Drosophila S3 Cells;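 on cell number change: cells counted by Cell Tracker Red CMTPX staining in the red channel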
Settings: BODIPY lipid droplet fluorescence, 18-24 h; for cell number change: measured here: cell count max response, cells fed with added oleic acid
In short: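 Drosophila S3 cells loaded with oleic acid (400 uM, as added) and compounds at several concentrations; lipid droplets imaged by 488-nm laser-scanning cytometry, 500–530 nm intensity and object ratio to cell channel. Percent activity normalized to 20 uM Triacsin C.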

[1] = measured here: cell number channel AC50, cells fed with added oleic acid
[2] = measured here: lipid fluorescence (Fed channel) AC50, cells fed with added oleic acid

SMILES | cell number change [%] | AC50 [1] | AC50 [2]
Cc1cc(C)nc(/N=C2\NC(=O)CC(C(=O)O)N2c2ccc(C)c(C)c2)n1 (stereo unspecified) | -54.2 | 23.1 µM [falling, single point] | –
COc1ccc(OC)c(N(CC(=O)NCCc2ccc(OC)c(OC)c2)S(=O)(=O)c2ccccc2)c1 | 2.56 | – | –
COc1cc(CN2CCC(C(=O)NC3CCCC3)CC2)cc(OC)c1O | -9.08 | – | 7.31 µM [falling, partial curve, poor fit]
C[N+](C)(C)CCOP(=O)([O-])OC[C@H](O)CO | 1.8 | – | 1.3 µM [falling, full curve]
COCC(C)n1c(SCC(=O)N(C)C2CCS(=O)(=O)C2)nc2ccccc2c1=O (stereo unspecified) | – | 0.058 µM [rising, partial curve, poor fit] | 0.058 µM [rising, partial curve, poor fit]
Cc1ccc(C(O)c2nc3ccccc3n2C(C)C)cc1 (stereo unspecified) | -14.3 | – | 9.2 µM [rising, partial curve]
CC(=O)Nc1cccc(C(=O)OCC(=O)NC2CCCCCCC2)c1 | -17.8 | – | 20.6 µM [rising, single point]
COc1ccc(CNC(=O)c2ccc(CS(=O)c3ccccc3)o2)cc1 (stereo unspecified) | -17.1 | – | 29.1 µM [rising, partial curve]
COc1ccc(CNc2ncnc3sccc23)cc1OC | -13.9 | – | –
CC1(C)CC(=O)C2=C(C1)N(Cc1ccccc1)C(=O)C2(NC(=O)C(C)(C)C)C(F)(F)F (stereo unspecified) | -12.1 | – | 32.6 µM [falling, single point]
Cc1ccccc1OCC(=O)NNC(=O)c1ccoc1C | 2.99 | – | –
COc1ccc2[nH]c(C)c(CCNC(=S)Nc3cc(C)cc(C)c3)c2c1 | 18.1 | 0.651 µM [rising, full curve, poor fit] | 0.206 µM [rising, full curve, poor fit]
CN=C(N)NC(=O)Nc1c(C)cccc1C | -3.69 | – | 0.164 µM [falling, full curve, poor fit]
Cc1ccc(Nc2nc(/N=C/NO)n[nH]2)cc1C | -35.3 | 29.1 µM [falling, partial curve, poor fit] | –
CCCOc1ccc(Cl)cc1/C=C1/C(=O)ON=C1C | 17 | – | 29.1 µM [rising, single point]
CCOC(=O)c1oc2ccc(Cl)cc2c1NC(C)=O | -8.31 | – | 2.06 µM [rising, single point]
Nc1ccc(N2CCN(c3ccc(Cl)c(Cl)c3)CC2)cc1 | -9.36 | – | 2.91 µM [rising, single point]
CCOC(=O)c1ccc(NC(=S)NCCc2ccccc2)cc1 | -24.1 | – | 16.4 µM [falling, single point]
Cc1cccc(C)c1OCc1cc(C(=O)NC2CCC2)no1 | 28.1 | – | 0.13 µM [falling, full curve, poor fit]
COc1cccc(NCc2nnc(SCC(=O)NC3CCS(=O)(=O)C3)n2C2CCCCC2)c1 (stereo unspecified) | – | 6.51 µM [rising, single point] | –

SMILES | cell number change [%] | AC50 [1] | AC50 [2]
COc1ccc(C(=O)Nc2cc([N+](=O)[O-])ccc2N2CCN(C)CC2)cc1 | 5.33 | – | 0.00731 µM [falling, full curve, poor fit]
Cc1ccccc1S(=O)(=O)c1c(C)cc(C)n(C)c1=O | -49.2 | 6.51 µM [falling, full curve] | 4.11 µM [falling, full curve, poor fit]
CCc1cccc(NC(=O)Cc2ccc(OC)c(OC)c2)c1 | -6.04 | – | –
C1CN(c2nc3nonc3nc2N2CCOCC2)CCO1 | -9.62 | – | 2.59 µM [falling, full curve, poor fit]
CC(=O)c1cccc(NC(=O)N2CCCC2C(=O)Nc2ccccc2C)c1 (stereo unspecified) | 26.7 | – | 29.1 µM [rising, single point]
O=C(c1ccccc1)N1CC(COc2ccccc2)OC(c2ccco2)O1 (stereo unspecified) | -11.7 | – | –
Cn1nc(C(=O)NNC(=O)C2CSC3(C)CCC(=O)N23)c2ccccc2c1=O (stereo unspecified) | -16.3 | – | 3.66 µM [falling, partial curve, poor fit]
CN(C)c1ccc(/C=C2\SC(N3CCCCC3)=NC2=O)cc1 | 12.3 | – | –
NC(=O)c1cc(N2C(=O)C3CC=CCC3C2=O)ccc1N1CCCCC1 (stereo unspecified) | 33.8 | 29.1 µM [rising, single point] | –
Cc1ccc(Oc2ncccc2C(=O)NCC(=O)O)cc1 | -60.5 | 32.6 µM [falling, single point] | –
O=C(O)CC/C(=N\NC(=O)c1ccccc1Br)c1ccccc1 | 40.1 | 29.1 µM [rising, single point] | 20.6 µM [rising, single point]
CCn1c2ccccc2c2cc(NC(=O)c3cccc([N+](=O)[O-])c3C)ccc21 | 23.3 | 0.731 µM [falling, single point] | 0.116 µM [rising, full curve, poor fit]
Nc1c(C(=O)c2ccc(Cl)cc2)sc2nc3c(cc12)CCC3 | 17.3 | – | 0.731 µM [rising, partial curve]
CC(=O)c1cccc(NC(=O)CN(c2ccc(F)cc2)S(C)(=O)=O)c1 | 59.9 | 25.9 µM [rising, partial curve, poor fit] | –
COc1ccc(N2CC(C)Cn3c2nc2c3c(=O)n(Cc3ccccc3F)c(=O)n2C)c(OC)c1 (stereo unspecified) | -9.34 | – | –
COc1ccc(OCC(=O)N2CCN(c3cccc(Cl)c3)CC2)cc1 | 79.9 | 14.6 µM [rising, partial curve] | –
Oc1ccccc1-c1cc(-c2ccccc2)no1 | 9.66 | – | 3.26 µM [rising, partial curve]
CCCSC1=N/C(=C\C=C\c2ccco2)C(=O)S1 | -12.8 | – | 6.51 µM [falling, single point]
O=C(CCCCl)Oc1ccc2cc(-c3ccc4ccccc4n3)c(=O)oc2c1 | 38.7 | 29.1 µM [rising, single point] | –
COc1ccc(CCNC(=O)CSC2=NS(=O)(=O)c3ccccc3N2)cc1OC | -1.36 | – | 1.64 µM [falling, partial curve, poor fit]

Copied from the list.
Cc1ccccc1S(=O)(=O)c1c(C)cc(C)n(C)c1=O – AC50 [1]: 6.51 µM [falling, full curve]
NC(=O)c1cc(N2C(=O)C3CC=CCC3C2=O)ccc1N1CCCCC1 (stereo unspecified) – AC50 [1]: 29.1 µM [rising, single point]
